# Among all 340,000 compounds or so, about 6,200 (1.8%) were called active. Inconclusive means that the source gave no clear call. Such entries were picked first, then a sample of the others. Calls follow the shape of the dose curve; as a rule, active = well fitted activation curve with a large enough effect; inconclusive = small, poorly fitted or top-dose-only effect; inactive = no such curve, though single readings can be large or run the other way. Potencies beside an inconclusive call are fits to weak or partial responses and may not hold up.
# Assay: A quantitative high throughput screen for small molecules that induce DNA re-replication in SW480 colon adenocarcinoma cells. Also: nearly all actives have a fitted effect of over 55% in size. As to re-replication activation: % of control where 0% means no effect.
# Details: Hoechst DNA content imaging, 48 h; re-replication activation: at 46.1 µM (top of the series) unless noted
# Outline: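 First, 250 cells per well were seeded. Next, compound or vehicle (23 nL) was pinned in, plates sat 48 hr at 37 C. Finally Hoechst was added for 40 min before fluorescence scanning.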
# Potency is read from the fitted curve at half-maximal effect.
SMILES,Potency,re-replication activation
COc1ccc(C(=O)NCc2ccc(N3CCN(C(=O)OC(C)(C)C)CC3)cc2)cc1,inactive,–
CCOC(=O)C1=CN(Cc2ccco2)S(=O)(=O)N(C)C1c1ccccc1 (stereo not drawn),"inconclusive: 23.1 µM [activator, single point]",–
CCc1cc(=O)oc2cc(OCC(=O)NCC3CCC(C(=O)O)CC3)ccc12 (stereo not drawn),"inconclusive: 5.8 µM [activator, partial curve, poor fit]",–
S=C(NCc1ccco1)Nc1cc(Cl)c(Cl)cc1Cl,inactive,–
CCn1ccnc1CN1CCN(CC=C(C)C)C(CCO)C1 (stereo not drawn),"inconclusive: 29.1 µM [activator, single point]",–
CC(NCC(O)COc1ccc(S(=O)(=O)N2CCOCC2)cc1)c1ccccc1 (stereo not drawn),inactive,–
OCCOCCn1c(C(CO)Nc2nc(-c3ccc(Cl)cc3)cs2)nc2ccccc21 (stereo not drawn),"inconclusive: 3.66 µM [activator, partial curve, poor fit]",–
CCc1cc(Cn2nc(-c3ccccc3)cc2C(=O)NCc2cccs2)on1,"inconclusive: 9.2 µM [activator, partial curve, poor fit]",–
CCOC(=O)c1[nH]c(C)c(C(=O)OCC(=O)Nc2sc3c(c2C#N)CCCCC3)c1C,"inconclusive: 7.31 µM [activator, partial curve]",–
CC1CC(C)(C)NC(=S)N1CCCC(=O)Nc1ccc2c(c1)OCCO2 (stereo not drawn),inactive,–
CCc1ccc(NC(=O)CC2C(=O)NCCN2C(=O)c2ccc(F)cc2)cc1 (stereo not drawn),"inconclusive: 16.4 µM [activator, partial curve, poor fit]",–
CCOc1c(OC)cccc1C1CC(=O)Nc2cc3c(cc21)OCCO3 (stereo not drawn),"inconclusive: 20.6 µM [activator, single point]",–
Cc1ccc(C(=O)OCC(=O)Nc2cccc(S(=O)(=O)N3CCCCC3)c2)o1,"inconclusive: 3.26 µM [activator, full curve, poor fit]",–
COCC1CCCN(Cc2nc(Cc3ccccc3)no2)C1 (stereo not drawn),"inconclusive: 18.4 µM [activator, partial curve, poor fit]",–
O=c1c2ccc(Cl)cc2nc(-c2cccc(C(F)(F)F)c2)n1O,"inconclusive: 6.51 µM [activator, full curve, poor fit]",–
COc1ccc2c(c1)CCC1C2=NN(/C(C)=C\C(C)=O)C1c1ccc(F)cc1 (stereo not drawn),"inconclusive: 1.03 µM [activator, single point]",–
Cc1cc(C)c(C(=O)/C=C/c2cccc3ccccc23)c(=O)[nH]1,active: 23.1 µM,–
F[B-](F)(F)c1cncc2ccccc12,"inconclusive: 0.103 µM [activator, full curve, poor fit]",–
Cc1ccc(S(=O)(=O)NCc2cc(=O)n(C)c(=O)n2C)cc1C,"inconclusive: 14.6 µM [activator, partial curve, poor fit]",–
C=CCNC(=O)/C(=C\c1ccc2c(c1)OCO2)NC(=O)c1ccc(Br)cc1,inactive,–
COc1ccc(N2CCN(CC(O)COc3cc(C)cc(C)c3)CC2)cc1 (stereo not drawn),inactive,–
Nc1ccc(-c2nc3c(Cl)cc(N)cc3[nH]2)cc1,"inconclusive: 25.9 µM [activator, single point]",–
CN(C)CCCN(C(=O)c1ccc(S(=O)(=O)N(C)C2CCCCC2)cc1)c1nc2ccc(Br)cc2s1,"inconclusive: 25.9 µM [activator, single point]",–

SMILES,Potency,re-replication activation
CC(C)CNC(=S)NC1CC2CCCC(C1)N2Cc1cccs1 (stereo not drawn),inactive,–
COC(=O)c1ccc(NC(=O)Nc2cccc(F)c2)cc1,"inconclusive: 29.1 µM [activator, single point]",–
Cc1ccccc1Nc1c(C)c(C)nc2ncnn12,inactive,–
COc1cccc(CNc2ncnc3cc(OC)c(OC)cc23)c1,inactive,–
COc1ccc(C(C[N+](=O)[O-])c2c(C)cc3ccccn23)c(OC)c1 (stereo not drawn),"inconclusive: 16.4 µM [activator, single point]",–
Cc1nnc(NC(=O)CCC(=O)N2CCC(C)CC2)s1,"inconclusive: 0.0058 µM [activator, full curve, poor fit]",–
Cc1sc(NC(=O)CSc2nnnn2C2CCCCC2)c(C#N)c1C,inactive,–
c1ccc(Cn2nnnc2C(c2ccccc2)N2CCN(c3nc4ccccc4s3)CC2)cc1 (stereo not drawn),inactive,–
CC1(c2ccccc2)NC(=O)N(CC(=O)Nc2cccc(/C=C/c3ccccn3)c2)C1=O (stereo not drawn),"inconclusive: 23.1 µM [activator, partial curve, poor fit]",–
Cc1ccc(C)n1-c1ccc(C(=O)Nc2ccccc2F)cc1,"inconclusive: 20.6 µM [activator, single point]",–
C=CCn1c(SCc2nc3sc4c(c3c(=O)[nH]2)CCCC4)nc2ccccc2c1=O,inactive,–
COc1ccc(NC(=O)/C=C/c2ccccc2)c([N+](=O)[O-])c1,"inconclusive: 32.6 µM [activator, partial curve, poor fit]",–
Cc1cc(C)c(NC(=O)COC(=O)c2ccncc2)c(C)c1,inactive,–
C/C(=N\N=C(N)N)c1ccc(Cl)cc1Cl,"inconclusive: 18.4 µM [activator, single point]",–
O=C(NCc1ccccn1)c1cccc(S(=O)(=O)N2CCCCC2)c1,inactive,–
O=C(Nc1cc(Cl)ccc1N1CCOCC1)C1CC1,inactive,–
[O-][n+]1ccc(C(O)c2ccccc2)cc1 (stereo not drawn),–,inconclusive: 52.4% [activator]
CC1CCC/C(=N\NC(=S)NCc2ccccc2)C1 (stereo not drawn),inactive,–
COc1cc2c(cc1OC)C(C)N(C(=O)c1ccc(C)o1)CC2 (stereo not drawn),"inconclusive: 20.6 µM [activator, single point]",–
CN(C)CCCN(C(=O)c1ccc(S(=O)(=O)N2CCc3ccccc3C2)cc1)c1nc2ccc(F)cc2s1,"inconclusive: 23.1 µM [activator, single point]",–
CCCCCC(O)(c1ccc(OCC)cc1)C(CN1CCOCC1)c1ccccc1 (stereo not drawn),active: 25.9 µM,–
CCCC1=C(C(=O)OCC)C(c2ccc(OC)c(CSc3ccccn3)c2)C(C#N)=C(N)O1 (stereo not drawn),inactive,–
COc1cc(/C=N/NC(=O)c2[nH]nc3c2CCc2ccccc2-3)ccc1O,"inconclusive: 29.1 µM [activator, single point]",–

SMILES,Potency,re-replication activation
CC(=O)c1ccc(S(=O)(=O)NC2CC(=O)N(c3ccc(C)c(C)c3)C2)cc1 (stereo not drawn),"inconclusive: 6.51 µM [activator, partial curve, poor fit]",–
Cc1nn(C)c(C(=O)NNC(=S)Nc2ccc(F)cc2)c1[N+](=O)[O-],"inconclusive: 6.51 µM [activator, single point]",–
O=C(c1ccco1)N1CCC(c2nc3ccccc3[nH]2)CC1,inactive,–
O=C(Nc1cccc2ccccc12)c1ccc([N+](=O)[O-])s1,"inconclusive: 20.6 µM [activator, single point]",–
COC(=O)Cc1c(C)c2ccc(O)c(CNCc3ccc(OC)c(OC)c3)c2oc1=O,"inconclusive: 29.1 µM [activator, single point]",–
COc1ccc(C(C)NC(=O)c2ccncc2)cc1 (stereo not drawn),inactive,–
Cc1c(C(=O)Nc2nc3ccccc3[nH]2)oc2ccccc12,"inconclusive: 14.6 µM [activator, partial curve, poor fit]",–
COC(=O)c1ccc(CSc2nnc(-c3c[nH]c4ccccc34)n2-c2ccccc2)cc1,"inconclusive: 16.4 µM [activator, partial curve, poor fit]",–
COc1ccc(-c2nc(CN3CCCCC3c3nccn3C)c(C)o2)c(C)c1C (stereo not drawn),"inconclusive: 23.1 µM [activator, single point]",–
COc1ccc(C)cc1Nc1cc(C)nc2nc(C)nn12,"inconclusive: 29.1 µM [activator, single point]",–
COc1ccc2cc(CN(C(=O)Nc3ccccc3OC)C3CCCC3)c(=O)[nH]c2c1,"inconclusive: 23.1 µM [activator, single point]",–
CCOc1ccccc1NC(=O)CC1(CC(=O)N2CCOCC2)CCCC1,"inconclusive: 18.4 µM [activator, partial curve, poor fit]",–
Cc1ccc(C(C(=O)NC2CCCC2)N(C(=O)Cc2cccs2)c2ccc(C)c(C)c2)o1 (stereo not drawn),"inconclusive: 29.1 µM [activator, single point]",–
COc1cccc(OC)c1C1=CC(=O)C[C@H](c2ccc3c(c2)OCO3)C1,"inconclusive: 11.6 µM [activator, partial curve, poor fit]",–
COc1cc2c(-c3ccc4cc[nH]c4c3)c(-c3ccc(C#N)cc3)oc(=O)c2cc1OC,"inconclusive: 13 µM [activator, partial curve]",–
CN1C(=O)C(O)(CC(=O)/C=C/c2ccco2)c2cc(Br)ccc21 (stereo not drawn),"inconclusive: 29.1 µM [activator, single point]",–
CC1(C)CC(NC(=O)c2ccc(Cl)c(S(=O)(=O)N(Cc3ccccc3)c3ccccc3)c2)CC(C)(C)N1,"inconclusive: 25.9 µM [activator, single point]",–
O=C(Nc1nc2ccccc2[nH]1)C1CCC1,"inconclusive: 20.6 µM [activator, single point]",–
O=C(/C=C/c1ccncc1)c1ccc2c(c1)OCCO2,"inconclusive: 29.1 µM [activator, single point]",–
COc1ccc(C2CC(=O)C(C=NCCN3CCN(C(C)=O)CC3)=C(O)C2)cc1 (stereo not drawn),"inconclusive: 25.9 µM [activator, single point]",–
CCN(CC)S(=O)(=O)c1cc(C)c(C)cc1OCC(=O)NC1CCCC1,"inconclusive: 32.6 µM [activator, partial curve, poor fit]",–
O=C(CCN1C(=O)/C(=C/c2ccccc2Cl)SC1=S)NNC(=O)c1ccccc1O,"inconclusive: 29.1 µM [activator, single point]",–

# 2 compounds picked at random from those above:
SMILES,Potency,re-replication activation
CCOc1ccccc1NC(=O)CC1(CC(=O)N2CCOCC2)CCCC1,"inconclusive: 18.4 µM [activator, partial curve, poor fit]",–
COc1ccc(-c2nc(CN3CCCCC3c3nccn3C)c(C)o2)c(C)c1C (stereo not drawn),"inconclusive: 23.1 µM [activator, single point]",–

# Source: PubChem BioAssay AID624297 (National Center for Advancing Translational Sciences (NCATS), 2012)
